These results are taken from publication PMC9606368, “Membrane mediated phase separation of the bacterial nucleoid occlusion protein Noc” (Scientific Reports, 2022).

No constants are given. Whether binding was seen depends on the method and setting.

In this test the target is T1, nucleoid occlusion protein Noc (wild type) (B. subtilis) (UniProt P37524).
T1 sequence: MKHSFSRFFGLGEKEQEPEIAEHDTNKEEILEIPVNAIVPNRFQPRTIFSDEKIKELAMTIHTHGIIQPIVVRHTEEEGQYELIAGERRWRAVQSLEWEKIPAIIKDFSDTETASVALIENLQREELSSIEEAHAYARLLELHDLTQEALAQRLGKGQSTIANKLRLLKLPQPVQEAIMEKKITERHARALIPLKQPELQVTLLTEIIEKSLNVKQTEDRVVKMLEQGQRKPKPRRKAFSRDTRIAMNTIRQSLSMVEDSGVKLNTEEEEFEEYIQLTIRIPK
Briefly: QCM-D; supported lipid bilayer on SiO2-coated quartz sensor; 150 µl of sample flown over at 0.1 ml/min; Noc with B. subtilis FtsZ compared to Noc alone; non-phase separated state; both purified.

B1: B. subtilis FtsZ (protein)
chain: MLEFETNIDGLASIKVIGVGGGGNNAVNRMIENEVQGVEYIAVNTDAQALNLSKAEVKMQIGAKLTRGLGAGANPEVGKKAAEESKEQIEEALKGADMVFVTAGMGGGTGTGAAPVIAQIAKDLGALTVGVVTRPFTFEGRKRQLQAAGGISAMKEAVDTLIVIPNDRILEIVDKNTPMLEAFREADNVLRQGVQGISDLIATPGLINLDFADVKTIMSNKGSALMGIGIATGENRAAEAAKKAISSPLLEAAIDGAQGVLMNITGGTNLSLYEVQEAADIVASASDQDVNMIFGSVINENLKDEIVVTVIATGFIEQEKDVTKPQRPSLNQSIKTHNQSVPKREPKREEPQQQNTVSRHTSQPADDTLDIPTFLRNRNKRG
Turning to B1, the binding entry is on record as “no binding”.
